The list shows a part of the results.
Columns and labels:
Assay in all cases: log2 fold change, soluble protein after heating vs DMSO (PISA); higher = thermal stabilisation; K562 cells, 10 uM, 30 min; active = over 0.2 and 3.5 SD of the protein, either way, in both replicates (recomputed)
erlotinib = compound: C#Cc1cccc(Nc2ncnc3cc(OCCOC)c(OCCOC)cc23)c1 [erlotinib]
How it was run: (§1)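 K562 cells at 2×10^6 cells/mL were treated for 30 min with 10 μM compound, and aliquots were heated for 3 min over 48°C-58°C before pooling. Extraction used PBS with 0.5% NP-40 at 4°C, and soluble protein was the supernatant after 21,000xg for 90 min, measured by TMTpro 16plex LC-MS/MS with channel sums equalised. Thermal stability values, relative to control samples and from duplicates, are log2 fold changes.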

By UniProt entry, the sequences of proteins in these tests, tags left out. Where a name states a change or a piece, a line headed by the entry shows the natural chain unless it says otherwise.
UniProt Q8IY57: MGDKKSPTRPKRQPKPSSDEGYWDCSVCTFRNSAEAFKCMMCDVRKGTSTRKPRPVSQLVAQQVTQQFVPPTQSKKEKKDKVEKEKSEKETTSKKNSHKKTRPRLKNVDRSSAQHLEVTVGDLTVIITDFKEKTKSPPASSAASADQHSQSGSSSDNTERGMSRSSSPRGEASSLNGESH
UniProt Q9C0B5: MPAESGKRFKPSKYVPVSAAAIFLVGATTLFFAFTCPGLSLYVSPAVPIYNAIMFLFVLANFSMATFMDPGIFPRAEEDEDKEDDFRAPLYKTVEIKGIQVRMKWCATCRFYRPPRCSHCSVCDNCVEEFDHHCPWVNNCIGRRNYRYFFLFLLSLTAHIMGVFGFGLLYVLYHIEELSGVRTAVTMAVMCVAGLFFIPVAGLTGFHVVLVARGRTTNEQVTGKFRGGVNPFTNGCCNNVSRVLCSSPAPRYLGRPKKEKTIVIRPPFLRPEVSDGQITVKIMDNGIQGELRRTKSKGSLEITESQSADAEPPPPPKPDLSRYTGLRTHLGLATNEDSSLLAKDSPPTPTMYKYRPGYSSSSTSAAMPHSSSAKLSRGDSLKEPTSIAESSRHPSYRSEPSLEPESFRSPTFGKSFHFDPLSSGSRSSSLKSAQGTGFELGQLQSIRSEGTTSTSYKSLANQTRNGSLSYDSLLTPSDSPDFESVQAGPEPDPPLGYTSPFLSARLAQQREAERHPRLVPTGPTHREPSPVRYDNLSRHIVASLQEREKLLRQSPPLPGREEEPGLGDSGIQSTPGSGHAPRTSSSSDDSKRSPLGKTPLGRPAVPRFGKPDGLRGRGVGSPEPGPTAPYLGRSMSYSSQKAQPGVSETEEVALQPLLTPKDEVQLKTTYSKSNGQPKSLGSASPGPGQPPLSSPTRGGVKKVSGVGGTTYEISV
UniProt O95619, whole entry, looked up: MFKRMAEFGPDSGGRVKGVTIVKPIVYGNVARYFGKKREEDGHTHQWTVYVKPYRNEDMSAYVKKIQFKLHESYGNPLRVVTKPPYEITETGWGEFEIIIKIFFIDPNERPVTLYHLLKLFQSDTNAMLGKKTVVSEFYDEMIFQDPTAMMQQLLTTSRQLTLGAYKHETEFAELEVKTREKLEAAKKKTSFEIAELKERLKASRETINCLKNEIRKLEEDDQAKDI
UniProt P13010: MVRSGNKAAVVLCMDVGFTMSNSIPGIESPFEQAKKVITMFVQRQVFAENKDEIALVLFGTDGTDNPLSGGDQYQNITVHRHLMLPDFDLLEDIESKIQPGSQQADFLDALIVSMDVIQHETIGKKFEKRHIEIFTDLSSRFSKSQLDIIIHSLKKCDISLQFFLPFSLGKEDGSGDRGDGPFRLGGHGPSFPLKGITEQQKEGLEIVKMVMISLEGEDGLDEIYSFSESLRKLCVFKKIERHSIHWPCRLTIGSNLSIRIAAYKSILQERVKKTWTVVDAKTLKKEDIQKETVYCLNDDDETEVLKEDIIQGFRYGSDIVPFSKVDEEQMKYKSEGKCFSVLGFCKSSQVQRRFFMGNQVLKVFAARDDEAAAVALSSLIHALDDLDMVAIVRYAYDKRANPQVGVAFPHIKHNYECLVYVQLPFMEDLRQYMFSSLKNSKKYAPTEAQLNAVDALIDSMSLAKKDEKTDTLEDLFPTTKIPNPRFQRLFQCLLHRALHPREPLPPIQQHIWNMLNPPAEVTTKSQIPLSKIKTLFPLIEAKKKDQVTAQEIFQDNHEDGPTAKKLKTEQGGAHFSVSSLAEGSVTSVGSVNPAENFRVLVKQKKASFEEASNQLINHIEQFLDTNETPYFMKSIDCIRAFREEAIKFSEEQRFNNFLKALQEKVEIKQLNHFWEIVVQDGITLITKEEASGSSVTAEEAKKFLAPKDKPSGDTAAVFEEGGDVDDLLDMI
UniProt P51811: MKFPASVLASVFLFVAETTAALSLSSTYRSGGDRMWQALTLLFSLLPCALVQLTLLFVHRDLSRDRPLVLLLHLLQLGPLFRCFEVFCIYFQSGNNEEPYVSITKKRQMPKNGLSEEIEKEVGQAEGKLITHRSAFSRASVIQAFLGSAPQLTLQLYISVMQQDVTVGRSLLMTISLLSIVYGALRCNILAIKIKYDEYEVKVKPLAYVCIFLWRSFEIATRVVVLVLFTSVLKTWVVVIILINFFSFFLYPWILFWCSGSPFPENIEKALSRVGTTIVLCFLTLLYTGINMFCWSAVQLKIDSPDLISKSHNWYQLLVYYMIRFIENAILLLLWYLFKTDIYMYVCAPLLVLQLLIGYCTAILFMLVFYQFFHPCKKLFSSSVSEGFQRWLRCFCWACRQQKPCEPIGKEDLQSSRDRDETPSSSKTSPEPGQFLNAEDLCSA
UniProt Q9BYJ9: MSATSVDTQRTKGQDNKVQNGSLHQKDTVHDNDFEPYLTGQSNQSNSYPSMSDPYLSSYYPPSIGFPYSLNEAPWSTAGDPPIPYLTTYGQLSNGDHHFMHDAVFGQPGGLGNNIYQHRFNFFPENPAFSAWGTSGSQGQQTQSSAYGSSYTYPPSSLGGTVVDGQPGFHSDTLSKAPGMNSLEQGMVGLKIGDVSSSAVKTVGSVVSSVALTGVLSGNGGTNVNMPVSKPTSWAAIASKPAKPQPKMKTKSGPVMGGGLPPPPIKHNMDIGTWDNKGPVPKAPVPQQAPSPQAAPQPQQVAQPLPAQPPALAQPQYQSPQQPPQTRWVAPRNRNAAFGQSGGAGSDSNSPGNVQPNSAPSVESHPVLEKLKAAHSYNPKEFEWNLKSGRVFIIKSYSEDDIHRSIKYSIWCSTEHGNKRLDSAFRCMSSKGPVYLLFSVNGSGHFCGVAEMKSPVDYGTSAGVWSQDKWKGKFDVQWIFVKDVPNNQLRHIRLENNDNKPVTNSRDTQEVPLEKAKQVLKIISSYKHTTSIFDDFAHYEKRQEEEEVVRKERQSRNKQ
UniProt Q96DT7: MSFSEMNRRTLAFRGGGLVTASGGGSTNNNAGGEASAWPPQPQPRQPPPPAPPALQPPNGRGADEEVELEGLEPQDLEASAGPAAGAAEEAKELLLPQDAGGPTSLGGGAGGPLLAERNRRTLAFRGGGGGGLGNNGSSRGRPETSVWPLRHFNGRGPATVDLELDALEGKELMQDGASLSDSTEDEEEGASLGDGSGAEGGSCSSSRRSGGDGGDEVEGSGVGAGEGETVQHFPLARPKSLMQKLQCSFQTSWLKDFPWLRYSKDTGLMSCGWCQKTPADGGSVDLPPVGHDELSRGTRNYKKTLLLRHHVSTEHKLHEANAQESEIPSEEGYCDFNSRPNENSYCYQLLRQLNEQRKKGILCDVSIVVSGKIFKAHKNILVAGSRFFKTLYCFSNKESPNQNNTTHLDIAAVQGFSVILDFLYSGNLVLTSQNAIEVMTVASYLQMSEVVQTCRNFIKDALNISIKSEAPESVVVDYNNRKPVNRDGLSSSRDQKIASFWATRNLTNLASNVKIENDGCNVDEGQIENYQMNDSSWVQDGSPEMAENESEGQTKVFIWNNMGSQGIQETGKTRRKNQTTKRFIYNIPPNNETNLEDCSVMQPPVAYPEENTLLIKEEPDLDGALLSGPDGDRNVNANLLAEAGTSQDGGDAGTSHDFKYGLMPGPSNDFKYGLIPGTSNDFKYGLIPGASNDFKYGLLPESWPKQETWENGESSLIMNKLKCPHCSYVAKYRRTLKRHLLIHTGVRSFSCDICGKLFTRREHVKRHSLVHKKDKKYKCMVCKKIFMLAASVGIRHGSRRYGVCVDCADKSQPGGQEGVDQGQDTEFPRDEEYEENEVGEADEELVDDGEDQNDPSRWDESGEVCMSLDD
UniProt O75191: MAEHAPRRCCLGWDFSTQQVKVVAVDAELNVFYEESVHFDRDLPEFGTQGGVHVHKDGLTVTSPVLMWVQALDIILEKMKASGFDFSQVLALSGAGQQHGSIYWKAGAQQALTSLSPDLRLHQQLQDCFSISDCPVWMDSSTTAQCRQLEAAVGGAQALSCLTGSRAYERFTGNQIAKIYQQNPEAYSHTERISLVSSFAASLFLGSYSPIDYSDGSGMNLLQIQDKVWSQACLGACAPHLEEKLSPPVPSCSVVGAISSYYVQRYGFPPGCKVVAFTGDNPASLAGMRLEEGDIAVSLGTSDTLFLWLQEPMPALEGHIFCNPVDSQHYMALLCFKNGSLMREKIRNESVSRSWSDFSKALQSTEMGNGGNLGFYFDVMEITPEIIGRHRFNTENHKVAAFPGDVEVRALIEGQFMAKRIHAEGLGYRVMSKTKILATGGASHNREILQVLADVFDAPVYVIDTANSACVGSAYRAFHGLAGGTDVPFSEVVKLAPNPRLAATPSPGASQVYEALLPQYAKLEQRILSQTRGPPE
UniProt O95405: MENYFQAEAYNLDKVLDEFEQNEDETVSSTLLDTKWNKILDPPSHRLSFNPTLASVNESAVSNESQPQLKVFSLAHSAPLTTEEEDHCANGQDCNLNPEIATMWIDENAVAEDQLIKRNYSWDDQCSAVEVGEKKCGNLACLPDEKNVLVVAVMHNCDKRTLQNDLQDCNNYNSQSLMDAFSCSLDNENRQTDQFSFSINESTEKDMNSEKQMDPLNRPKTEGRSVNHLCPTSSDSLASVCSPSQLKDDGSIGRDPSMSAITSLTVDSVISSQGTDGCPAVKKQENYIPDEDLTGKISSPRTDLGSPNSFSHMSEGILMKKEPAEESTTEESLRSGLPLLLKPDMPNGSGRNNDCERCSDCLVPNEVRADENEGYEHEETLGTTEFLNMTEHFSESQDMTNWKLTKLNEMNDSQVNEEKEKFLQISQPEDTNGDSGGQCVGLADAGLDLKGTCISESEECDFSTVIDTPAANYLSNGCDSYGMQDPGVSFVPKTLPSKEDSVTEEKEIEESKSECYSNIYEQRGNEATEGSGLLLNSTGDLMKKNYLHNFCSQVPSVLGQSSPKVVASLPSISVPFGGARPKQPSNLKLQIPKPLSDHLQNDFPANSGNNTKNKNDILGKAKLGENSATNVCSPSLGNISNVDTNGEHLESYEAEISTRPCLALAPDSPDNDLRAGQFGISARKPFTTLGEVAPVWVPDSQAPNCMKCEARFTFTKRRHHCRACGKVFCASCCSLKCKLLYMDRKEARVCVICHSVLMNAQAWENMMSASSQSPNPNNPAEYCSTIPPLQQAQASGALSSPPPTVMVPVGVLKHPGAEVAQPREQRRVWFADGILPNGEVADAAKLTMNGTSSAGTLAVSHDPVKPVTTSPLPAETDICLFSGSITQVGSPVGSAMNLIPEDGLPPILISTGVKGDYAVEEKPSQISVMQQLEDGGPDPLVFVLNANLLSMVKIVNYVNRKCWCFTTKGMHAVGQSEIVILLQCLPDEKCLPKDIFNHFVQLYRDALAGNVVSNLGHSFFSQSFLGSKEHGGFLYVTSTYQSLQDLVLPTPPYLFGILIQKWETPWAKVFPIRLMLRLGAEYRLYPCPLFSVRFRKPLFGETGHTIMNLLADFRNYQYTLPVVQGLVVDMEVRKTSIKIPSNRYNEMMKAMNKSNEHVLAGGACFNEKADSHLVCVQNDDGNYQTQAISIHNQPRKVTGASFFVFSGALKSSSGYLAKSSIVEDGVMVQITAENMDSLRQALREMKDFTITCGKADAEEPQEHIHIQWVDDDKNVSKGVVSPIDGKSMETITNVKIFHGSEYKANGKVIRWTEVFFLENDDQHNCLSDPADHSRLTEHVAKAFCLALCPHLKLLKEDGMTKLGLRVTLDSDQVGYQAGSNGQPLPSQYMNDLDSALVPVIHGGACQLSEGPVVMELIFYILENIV
UniProt O43167: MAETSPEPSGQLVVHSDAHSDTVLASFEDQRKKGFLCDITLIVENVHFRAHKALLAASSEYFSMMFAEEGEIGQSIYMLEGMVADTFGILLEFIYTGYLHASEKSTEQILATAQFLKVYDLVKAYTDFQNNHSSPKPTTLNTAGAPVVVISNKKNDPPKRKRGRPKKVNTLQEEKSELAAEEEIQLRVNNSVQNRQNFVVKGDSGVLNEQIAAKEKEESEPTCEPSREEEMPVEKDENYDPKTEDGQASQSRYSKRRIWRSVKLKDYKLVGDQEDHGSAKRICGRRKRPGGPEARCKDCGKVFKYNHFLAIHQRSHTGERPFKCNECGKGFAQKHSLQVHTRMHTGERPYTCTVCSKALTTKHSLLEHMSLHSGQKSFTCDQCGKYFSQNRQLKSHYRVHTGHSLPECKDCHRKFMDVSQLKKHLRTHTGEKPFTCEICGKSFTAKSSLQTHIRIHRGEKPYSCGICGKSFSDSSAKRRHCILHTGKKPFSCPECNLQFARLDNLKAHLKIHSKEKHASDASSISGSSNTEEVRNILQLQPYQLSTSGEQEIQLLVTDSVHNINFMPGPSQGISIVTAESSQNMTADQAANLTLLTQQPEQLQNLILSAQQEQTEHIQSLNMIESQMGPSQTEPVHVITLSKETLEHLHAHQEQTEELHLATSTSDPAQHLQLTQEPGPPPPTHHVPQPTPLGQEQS

[1] = compound: C/C(=N\NC(=O)C1=CC(=CC=C1)S(=O)(=O)N2CCOCC2)/C3=C(C=CC(=C3)Cl)O
How it was run: as §1

[2] = compound: C1=CC(=C(C=C1Cl)C2=NC3=NC=CN=C3C(=N2)NC4=CC=NC=C4)F
How it was run: as §1

[3] = compound: C1=CC(=CC=C1C2=NC3=C(N2)C=C(C=C3)C(=O)N)OC4=CC=C(C=C4)Cl
How it was run: as §1

[4] = compound: C1=CC2=C(C=CC(=C2)/C=C\3/C(=O)NC(=NCC4=CC=CS4)S3)N=C1
How it was run: as §1

[5] = compound: C1=CC2=NC=CN=C2C=C1/C=C/3\C(=O)NC(=O)S3
How it was run: as §1

[6] = compound: C1=CC=C(C=C1)C2=NC(=C(N2)C3=CC=NC=C3)C4=CC(=C(C=C4)Cl)O
How it was run: as §1

[7] = compound: C1=CC=C2C(=C1)C3=NNC4=CC=CC(=C43)C2=O
How it was run: as §1

[8] = compound: C1CCN(C1)C(=O)NC2=CC=CC(=C2)NC3=NC=C(C(=N3)NCCC4=CN=CN4)Br
How it was run: as §1

[9] = compound: C1CN(CCC1(CC2=CC=C(C=C2)Cl)N)C3=NC=NC4=C3C=CN4
How it was run: as §1

Measured: log2 fold change

YAF2 isoform 5 (UniProt Q8IY57)
inactive: erlotinib -0.109 | [1] -0.038 | [2] 0.033 | [3] 0.042 | [4] 0.065 | [5] -0.068 | [6] 0.235 | [7] -0.113 | [8] 0.049 | [9] -0.104

XPR1 (UniProt Q9UBH6)
inactive: erlotinib -0.027 | [1] 0.055 | [2] 0.001 | [3] 0.034 | [4] 0.019 | [5] 0.01 | [6] 0.029 | [7] -0.042 | [8] -0.032 | [9] 0.011

ZC3H15 (UniProt Q8WU90)
inactive: erlotinib -0.015 | [1] -0.021 | [2] -0.094 | [3] -0.002 | [4] -0.058 | [5] -0.02 | [6] -0.083 | [7] -0.001 | [8] -0.016 | [9] -0.055

ZCCHC9 (UniProt Q8N567)
inactive: erlotinib -0.099 | [1] -0.224 | [2] -0.378 | [3] 0.025 | [4] -0.035 | [5] -0.015 | [6] -0.271 | [7] -0.009 | [8] 0.08 | [9] -0.1

XPOT (UniProt O43592)
inactive: erlotinib -0.035 | [1] 0.069 | [2] 0.005 | [3] -0.058 | [4] 0.037 | [5] 0.065 | [6] -0.047 | [7] -0.026 | [8] -0.005 | [9] -0.088

ZFYVE19 (UniProt Q96K21)
inactive: erlotinib 0.053 | [1] 0.013 | [2] -0.017 | [3] 0.016 | [4] 0.056 | [5] -0.01 | [6] -0.057 | [7] -0.076 | [8] 0.03 | [9] 0.047

XRN2 (UniProt Q9H0D6)
inactive: erlotinib 0.023 | [1] -0.082 | [2] -0.069 | [3] 0.035 | [4] 0.034 | [5] 0.009 | [6] -0.012 | [7] -0.085 | [8] 0.022 | [9] -0.03

ZDHHC5 (UniProt Q9C0B5)
inactive: erlotinib 0.028 | [1] 0.003 | [2] -0.002 | [3] 0.027 | [4] 0.091 | [5] 0.007 | [6] 0.01 | [7] -0.054 | [8] -0.076 | [9] 0.071

ZC3H13 (UniProt Q5T200)
inactive: erlotinib 0.178 | [1] -0.355 | [2] -0.06 | [3] 0.071 | [4] 0.472 | [5] -0.057 | [6] -0.413 | [7] -0.144 | [8] 0.384 | [9] -0.016

XXYLT1 (UniProt Q8NBI6)
inactive: erlotinib 0.007 | [1] -0.022 | [2] 0.022 | [3] -0.007 | [4] 0.022 | [5] 0.049 | [6] -0.034 | [7] 0.003 | [8] -0.005 | [9] -0.001

YEATS4 (UniProt O95619)
inactive: erlotinib -0.061 | [1] 0.002 | [2] -0.041 | [3] 0.119 | [4] -0.031 | [5] 0.07 | [6] -0.049 | [7] 0.025 | [8] -0.011 | [9] 0.058

ZBTB7A (UniProt O95365)
inactive: erlotinib -0.249 | [1] 0.02 | [2] -0.128 | [3] 0.057 | [4] 0.223 | [5] 0.015 | [6] 0.024 | [7] 0.21 | [8] -0.254 | [9] -0.002

ZC3H18 (UniProt Q86VM9)
inactive: erlotinib -0.066 | [1] 0.01 | [2] -0.134 | [3] 0.045 | [4] 0.003 | [5] 0.035 | [6] 0.015 | [7] -0.211 | [8] -0.126 | [9] -0.124

ZC3H8 (UniProt Q8N5P1)
inactive: erlotinib -0.091 | [1] -0.128 | [2] -0.275 | [3] 0.027 | [4] -0.062 | [5] 0.044 | [6] -0.076 | [7] -0.001 | [8] 0.038 | [9] -0.01

XRCC5 (UniProt P13010)
inactive: erlotinib 0.103 | [1] 0.178 | [2] -0.012 | [3] -0.038 | [4] 0.079 | [5] 0.037 | [6] 0.11 | [7] -0.039 | [8] -0.059 | [9] -0.139

YOD1 (UniProt Q5VVQ6)
inactive: erlotinib 0.064 | [1] 0.053 | [2] 0.021 | [3] 0.019 | [4] 0.066 | [5] 0.129 | [6] -0.02 | [7] 0.012 | [8] -0.012 | [9] -0.037

ZC3H4 (UniProt Q9UPT8)
inactive: erlotinib -0.142 | [1] -0.185 | [2] -0.349 | [3] 0.004 | [4] -0.146 | [5] -0.025 | [6] -0.054 | [7] -0.004 | [8] -0.003 | [9] -0.081

ZBTB3 (UniProt Q9H5J0)
inactive: erlotinib 0.056 | [1] 0.143 | [3] 0.155 | [4] -0.22 | [5] 0.075 | [6] -0.169 | [7] 0.186 | [8] 0.028 | [9] -0.052

ZMYND8 isoform 19 (UniProt Q9ULU4)
inactive: erlotinib 0.01 | [2] -0.247 | [3] 0.056 | [5] 0.183

ZFR (UniProt Q96KR1)
inactive: erlotinib 0.1 | [2] -0.444 | [3] -0.049 | [5] 0.014 | [6] -0.044 | [8] -0.039 | [9] -0.17

XK (UniProt P51811)
inactive: erlotinib -0.018 | [1] -0.134 | [3] 0.002 | [4] -0.135 | [5] -0.064 | [7] -0.071

YARS (UniProt P54577)
inactive: erlotinib 0.02 | [1] 0.017 | [2] -0.046 | [3] -0.052 | [4] 0.072 | [5] 0.033 | [6] 0.027 | [7] -0.015 | [8] -0.049 | [9] -0.106

YTHDF1 (UniProt Q9BYJ9)
inactive: erlotinib 0.031 | [2] -0.671 | [3] 0.02 | [5] 0.078

ZBTB10 (UniProt Q96DT7)
inactive: erlotinib 0.058 | [1] 0.035 | [2] -0.046 | [3] 0.038 | [4] -0.193 | [5] 0.272 | [7] 0.076 | [8] -0.063 | [9] -0.132

ZCCHC3 (UniProt Q9NUD5)
inactive: erlotinib -0.103 | [1] -0.019 | [2] -0.303 | [3] 0.1 | [4] -0.046 | [5] 0.067 | [6] 0.015 | [7] -0.088 | [8] 0.02 | [9] -0.127

XYLB (UniProt O75191)
inactive: erlotinib -0.187 | [2] 0.112 | [3] -0.018

ZFYVE9 (UniProt O95405)
inactive: erlotinib 0.08 | [2] 0.044 | [3] 0.029 | [5] -0.079 | [6] 0.07 | [8] 0.073 | [9] -0.006

XIRP2 isoform 8 (UniProt A4UGR9)
inactive: erlotinib -0.014 | [1] -0.258 | [3] 0.078 | [4] 0.063 | [5] 0.104 | [7] 0.012 | [8] -0.137 | [9] 0.078

XPO1 (UniProt O14980)
inactive: erlotinib 0.019 | [1] 0.118 | [2] 0.045 | [3] -0.06 | [4] 0.061 | [5] 0.041 | [6] 0.051 | [7] -0.036 | [8] 0.002 | [9] -0.027

ZBTB24 (UniProt O43167)
inactive: erlotinib -0.208 | [1] -0.28 | [2] -0.467 | [3] -0.001 | [4] -0.142 | [6] 0.309 | [7] -0.026 | [8] 0.14 | [9] -0.234

Two records drawn at random from those above, as already listed:
XPO1 (UniProt O14980)
inactive: erlotinib 0.019 | [1] 0.118 | [2] 0.045 | [3] -0.06 | [4] 0.061 | [5] 0.041 | [6] 0.051 | [7] -0.036 | [8] 0.002 | [9] -0.027

XIRP2 isoform 8 (UniProt A4UGR9)
inactive: erlotinib -0.014 | [1] -0.258 | [3] 0.078 | [4] 0.063 | [5] 0.104 | [7] 0.012 | [8] -0.137 | [9] 0.078
